Like-named read-outs stand apart in the source and are kept apart here. These are yes or no findings as the source states them, for the method shown. Binding seen in cells or lysates may run through a third protein. Some binding calls cover weakened binding; strength is not graded here. For some assays here: Tags and fused reporters may be left off the sequences shown.
What was measured:
Test in all cases: split reporter; multicolor BiFC (mcBiFC) in Arabidopsis leaf mesophyll protoplasts; plasmids for nVenus and cCFP fusions mixed 1:1, PEG-mediated transformation, overnight at room temperature; confocal microscopy, 488 nm excitation, 500–550 nm emission; CBP20–RFP as transformation control and nuclear marker
[1] = target: T1, nVenus–ACS7 (1-aminocyclopropane-1-carboxylate synthase 7 fused with the N-terminal fragment of Venus) (Arabidopsis thaliana) (UniProt Q9STR4)
T1 sequence: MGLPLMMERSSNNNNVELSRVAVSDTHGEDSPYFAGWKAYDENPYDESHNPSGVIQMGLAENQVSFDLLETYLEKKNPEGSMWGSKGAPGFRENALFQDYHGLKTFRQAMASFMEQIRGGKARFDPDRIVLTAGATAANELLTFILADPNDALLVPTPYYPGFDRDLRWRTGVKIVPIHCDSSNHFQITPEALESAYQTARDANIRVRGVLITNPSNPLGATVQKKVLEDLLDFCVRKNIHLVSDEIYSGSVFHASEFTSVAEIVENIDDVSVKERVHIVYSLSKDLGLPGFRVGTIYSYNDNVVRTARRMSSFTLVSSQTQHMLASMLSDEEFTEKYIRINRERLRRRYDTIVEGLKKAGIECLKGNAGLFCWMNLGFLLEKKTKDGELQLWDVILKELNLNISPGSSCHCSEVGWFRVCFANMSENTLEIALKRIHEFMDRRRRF

Amino acid sequences for entries named in this document (tags omitted).
UniProt P49597: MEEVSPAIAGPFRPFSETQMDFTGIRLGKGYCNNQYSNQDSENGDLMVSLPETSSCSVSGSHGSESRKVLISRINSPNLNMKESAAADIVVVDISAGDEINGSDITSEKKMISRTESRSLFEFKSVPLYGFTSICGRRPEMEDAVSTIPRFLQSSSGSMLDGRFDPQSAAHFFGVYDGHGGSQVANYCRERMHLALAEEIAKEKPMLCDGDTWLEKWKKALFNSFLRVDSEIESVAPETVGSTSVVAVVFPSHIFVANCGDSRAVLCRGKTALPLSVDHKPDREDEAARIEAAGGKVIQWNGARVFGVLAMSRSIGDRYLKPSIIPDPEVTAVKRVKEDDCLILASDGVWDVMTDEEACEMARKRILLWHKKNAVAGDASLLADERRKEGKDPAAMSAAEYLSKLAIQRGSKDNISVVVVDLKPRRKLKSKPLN
UniProt O04719: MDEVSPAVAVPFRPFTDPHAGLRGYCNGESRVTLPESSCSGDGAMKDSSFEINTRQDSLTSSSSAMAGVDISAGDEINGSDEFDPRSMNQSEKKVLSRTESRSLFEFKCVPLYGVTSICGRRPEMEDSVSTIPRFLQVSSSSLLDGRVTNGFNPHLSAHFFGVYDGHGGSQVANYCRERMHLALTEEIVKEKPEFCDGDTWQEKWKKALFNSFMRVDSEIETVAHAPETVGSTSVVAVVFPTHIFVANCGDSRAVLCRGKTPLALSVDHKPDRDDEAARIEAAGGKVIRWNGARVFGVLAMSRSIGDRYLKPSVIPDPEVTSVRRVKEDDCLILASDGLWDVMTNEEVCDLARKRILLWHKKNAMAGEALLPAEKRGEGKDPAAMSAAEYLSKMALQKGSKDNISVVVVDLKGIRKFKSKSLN

[2] = target: T2, nVenus–ACS7 Δ1 (ACS7^1–50) (Arabidopsis thaliana) (UniProt Q9STR4)
T2 sequence: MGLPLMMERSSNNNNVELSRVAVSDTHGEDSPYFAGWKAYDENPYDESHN

[3] = target: T3, nVenus–ACS7 Δ2 (ACS7^1–100) (Arabidopsis thaliana) (UniProt Q9STR4)
T3 sequence: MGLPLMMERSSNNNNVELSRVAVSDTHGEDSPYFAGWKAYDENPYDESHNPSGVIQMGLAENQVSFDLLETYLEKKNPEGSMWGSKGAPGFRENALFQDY

[4] = target: T4, nVenus–ACS7 Δ3 (ACS7^200–447) (Arabidopsis thaliana) (UniProt Q9STR4)
T4 sequence: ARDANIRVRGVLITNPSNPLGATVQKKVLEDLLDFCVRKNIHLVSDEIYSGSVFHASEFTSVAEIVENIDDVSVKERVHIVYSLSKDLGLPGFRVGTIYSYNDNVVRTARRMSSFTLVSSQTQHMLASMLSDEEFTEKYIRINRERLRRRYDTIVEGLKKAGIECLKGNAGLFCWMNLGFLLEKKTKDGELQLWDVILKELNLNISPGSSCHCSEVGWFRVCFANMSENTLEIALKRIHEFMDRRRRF

[5] = target: T5, nVenus–ACS7 Δ4 (ACS7^101–447) (Arabidopsis thaliana) (UniProt Q9STR4)
T5 sequence: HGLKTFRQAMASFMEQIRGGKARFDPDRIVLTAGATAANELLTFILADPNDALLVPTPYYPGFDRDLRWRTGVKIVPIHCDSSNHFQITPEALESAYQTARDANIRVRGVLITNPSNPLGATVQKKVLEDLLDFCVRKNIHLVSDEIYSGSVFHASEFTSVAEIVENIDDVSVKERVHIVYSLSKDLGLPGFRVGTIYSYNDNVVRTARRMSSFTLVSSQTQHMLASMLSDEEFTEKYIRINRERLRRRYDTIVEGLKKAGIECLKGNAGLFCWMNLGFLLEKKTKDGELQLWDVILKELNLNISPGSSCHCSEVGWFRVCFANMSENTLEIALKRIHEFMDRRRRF

[6] = target: T1, nVenus–ACS7 (1-aminocyclopropane-1-carboxylate synthase 7 fused with the N-terminal fragment of Venus) (Arabidopsis thaliana); remark: listed apart in the source

Measured: binding

cCFP–ABI1 (protein phosphatase type 2C ABI1 fused with the C-terminal fragment of CFP) (from UniProt P49597 1-434) (enzyme)
binds: [1] | [2] | [3] | [4] | [5]

cCFP–ABI2 (protein phosphatase type 2C ABI2 fused with the C-terminal fragment of CFP) (from UniProt O04719 1-423) (enzyme)
binds: [1] | [2] | [3] | [4] | [5]

B1: nVenus–ACS7 (1-aminocyclopropane-1-carboxylate synthase 7 fused with the N-terminal fragment of Venus) (enzyme, UniProt Q9STR4 1-447)
chain: MGLPLMMERSSNNNNVELSRVAVSDTHGEDSPYFAGWKAYDENPYDESHNPSGVIQMGLAENQVSFDLLETYLEKKNPEGSMWGSKGAPGFRENALFQDYHGLKTFRQAMASFMEQIRGGKARFDPDRIVLTAGATAANELLTFILADPNDALLVPTPYYPGFDRDLRWRTGVKIVPIHCDSSNHFQITPEALESAYQTARDANIRVRGVLITNPSNPLGATVQKKVLEDLLDFCVRKNIHLVSDEIYSGSVFHASEFTSVAEIVENIDDVSVKERVHIVYSLSKDLGLPGFRVGTIYSYNDNVVRTARRMSSFTLVSSQTQHMLASMLSDEEFTEKYIRINRERLRRRYDTIVEGLKKAGIECLKGNAGLFCWMNLGFLLEKKTKDGELQLWDVILKELNLNISPGSSCHCSEVGWFRVCFANMSENTLEIALKRIHEFMDRRRRF
binds: [6]

Source: PMC7227406, “Protein Phosphatases Type 2C Group A Interact with and Regulate the Stability of ACC Synthase 7 in Arabidopsis” (Cells, 2020)
